# Values quoted from earlier work in patent US6516214B1, “Detection of stroke events using diffuse optical tomography” (The General Hospital Corporation, priority 2000, dated 2003).
# At least one compound was matched to its structure with a doubt left.
# Conditions: cited from earlier work
row,Structure (SMILES),Abs. Max.
1,"CCN(Cc1cccc(S(=O)(=O)[O-])c1)c1ccc(C(=C2C=CC(=[N+](CC)Cc3cccc(S(=O)(=O)[O-])c3)C=C2)c2ccc(O)cc2S(=O)(=O)[O-])cc1.[Na+].[Na+] [Green No. 3, Fast Green FCF]",628 nm
2,Cc1cc(-c2ccc(N=Nc3ccc4c(S(=O)(=O)[O-])cc(S(=O)(=O)[O-])c(N)c4c3O)c(C)c2)ccc1N=Nc1ccc2c(S(=O)(=O)[O-])cc(S(=O)(=O)[O-])c(N)c2c1O.[Na+].[Na+].[Na+].[Na+] [Evan's Blue],610 nm
3,"O=S(=O)([O-])c1ccc(N=Nc2c(O)ccc3cc(S(=O)(=O)[O-])ccc23)cc1.[Na+].[Na+] [Yellow No. 6, Sunset Yellow FCF]",480 nm
